{"source": "PubChem BioAssay AID624297", "about": "(National Center for Advancing Translational Sciences (NCATS), 2012)", "note": "About 6,200 (1.8%) of roughly 340,000 compounds were called active. Inconclusive means that the source gave no clear call. Such entries were picked first, then a sample of the others. The call rests on the fitted dose curve; in most records, active means well fitted activation curve with a large enough effect; inconclusive means small, poorly fitted or top-dose-only effect; inactive means no such curve, though single readings can be large or run the other way. Potencies beside an inconclusive call are fits to weak or partial responses and may not hold up. Potency means the concentration at half of the fitted maximal effect.", "data": [{"experiment": "A quantitative high throughput screen for small molecules that induce DNA re-replication in SW480 colon adenocarcinoma cells; further: nearly all actives have a fitted effect of over 55% in size; on re-replication activation: % of control where 0% means no effect.", "conditions": "Hoechst DNA content imaging, 48 h; re-replication activation: at 46.1 µM (top of the series) unless noted", "outline": "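SW480 cells exposed to compounds for 48 hr at 37 C, 5% CO2, then Hoechst-stained 40 min. Nuclear DNA content imaged by fluorescence scanning (405 nm excitation, 500-530 nm emission); re-replication scored as increased high-intensity nuclei.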", "values": [{"smiles": "CCc1ccc(C(=O)COC(=O)c2cnccn2)cc1", "re-replication activation": "inactive: -5.64%"}, {"smiles": "C=CCNc1nnc(Cc2ccc(C(C)C)cc2)c(=O)[nH]1", "Potency": "inconclusive: 23.1 µM [activator, single point]"}, {"smiles": "O=C(NCC(c1ccco1)N1CCc2ccccc21)C(=O)Nc1ccccc1F", "note": "(stereo not drawn)", "Potency": "inconclusive: 20.6 µM [activator, single point]"}, {"smiles": "O=C(N/N=C/c1cccnc1)c1cc(-c2ccc(Br)cc2)nc2ccccc12", "Potency": "active: 20.6 µM"}, {"smiles": "c1ccc(-n2ncc3c(NC4CCCCCC4)ncnc32)cc1", "Potency": "inconclusive: 23.1 µM [activator, partial curve, poor fit]"}, {"smiles": "CCC(c1nnnn1Cc1ccco1)N(CCc1ccccc1)Cc1cc2ccc(OC)cc2[nH]c1=O", "note": "(stereo not drawn)", "Potency": "inconclusive: 23.1 µM [activator, single point]"}, {"smiles": "O=C(NNC(=O)c1ccc(SCC2CCCO2)c([N+](=O)[O-])c1)c1ccc(Cl)c([N+](=O)[O-])c1", "note": "(stereo not drawn)", "re-replication activation": "inactive: 6.93%"}, {"smiles": "COC(=O)c1cccc(NC(=S)Nc2ccc(Cl)c(Cl)c2)c1", "re-replication activation": "inactive: -0.762%"}, {"smiles": "O=C(Nc1ccc(Br)cc1F)c1ccc2nsnc2c1", "Potency": "inconclusive: 29.1 µM [activator, single point]"}, {"smiles": "O=C(Nc1ccccc1C(=O)N1CCOCC1)c1cc2ccccc2o1", "re-replication activation": "inconclusive: -1.81% [activator]"}, {"smiles": "Nc1cc(N2CCCC2)c(Cl)cc1[N+](=O)[O-]", "re-replication activation": "inactive: -0.622%"}, {"smiles": "CCOc1ccc(CNC(=O)C2CCN(c3nnc(C)c4c(C)n(-c5ccc(C)cc5)nc34)CC2)cc1", "Potency": "inconclusive: 29.1 µM [activator, single point]"}, {"smiles": "CC(C)C(=O)N=C1SC2CS(=O)(=O)CC2N1Cc1ccccc1", "note": "(stereo not drawn)", "re-replication activation": "inactive: -1.96%"}, {"smiles": "CC(C)NCC(O)COCCOc1ccc(Cl)cc1", "note": "(stereo not drawn)", "Potency": "inconclusive: 23.1 µM [activator, single point]"}, {"smiles": "COc1ccc(-c2nc(CS(=O)CC(=O)NCc3ccc(Cl)cc3)c(C)o2)cc1OC", "note": "(stereo not drawn)", "re-replication activation": "inactive: -9.19%"}, {"smiles": "O=C(O)c1cccc(N2C(=O)c3ccc(C(=O)c4cccc([N+](=O)[O-])c4)cc3C2=O)c1", "re-replication activation": "inactive: -4.92%"}, {"smiles": "Cc1cc2ncn(/N=C/c3ccc([N+](=O)[O-])s3)c2cc1C", "Potency": "inconclusive: 18.4 µM [activator, single point]"}, {"smiles": "CS(=O)(=O)c1sc2nc(-c3ccccc3)cc(-c3ccccc3)c2c1N", "Potency": "active: 11.2 µM"}, {"smiles": "CCCNC(=O)c1ccc(N2CCC3(CC2)CC(c2ccccc2)=NO3)c(NC(=O)c2ccc(Br)cc2)c1", "re-replication activation": "inactive: 10.9%"}, {"smiles": "Cc1cccc(NC(=S)NCCc2ccccn2)c1", "re-replication activation": "inactive: -14.4%"}, {"smiles": "Cc1ccc(-c2csc(NC(=O)CN3CC(C)OC(C)C3)n2)cc1", "note": "(stereo not drawn)", "Potency": "inconclusive: 20.6 µM [activator, single point]"}, {"smiles": "O=C(CCSc1ccc(Cl)cc1)N1CCN(c2ccc(O)cc2)CC1", "Potency": "inconclusive: 2.59 µM [activator, full curve]"}, {"smiles": "C=CCN=C1S/C(=C\\c2ccc(N(C)C)cc2)C(=O)N1CC=C", "Potency": "inconclusive: 29.1 µM [activator, single point]"}, {"smiles": "CCOC(=O)C1(Cc2ccc(OC)cc2)CCN(C(=O)c2ccoc2C)CC1", "re-replication activation": "inactive: -37.3%"}, {"smiles": "Cc1ccc(-n2c(C)cc(/C=N/NC(=O)c3ccncc3)c2C)cc1C", "re-replication activation": "inactive: 11.8%"}, {"smiles": "Nc1c(C(=O)Nc2ccc(Br)cc2)sc2nc(-c3ccco3)ccc12", "Potency": "inconclusive: 20.6 µM [activator, single point]"}, {"smiles": "O=C(CCC1CCCC1)Nc1cc(Cl)ccc1N1CCOCC1", "Potency": "inconclusive: 3.26 µM [activator, single point]"}, {"smiles": "COc1ccc(CCNC(=O)c2cc(-c3ccccn3)nc3c(Cl)cccc23)cc1OC", "re-replication activation": "inactive: -5.96%"}, {"smiles": "COc1cccc(/C=N/NC(=O)CSCC(=O)Nc2ccccc2)c1O", "Potency": "inconclusive: 3.55 µM [activator, full curve]"}, {"smiles": "CSc1cccc(NC(=O)C2CCN(S(=O)(=O)c3ccc4c(c3)NC(=O)CO4)CC2)c1", "re-replication activation": "inactive: -2.95%"}, {"smiles": "COc1ccccc1OCCCN1C(=O)C(=O)c2cccc(C)c21", "Potency": "inconclusive: 29.1 µM [activator, single point]"}, {"smiles": "CC(=O)N1CCc2cc(S(=O)(=O)CCC(=O)NCCc3ccc(Cl)cc3)ccc21", "Potency": "inconclusive: 11.6 µM [activator, single point]"}, {"smiles": "COc1ccc(Cl)cc1N1CC(C(=O)Nc2nccs2)CC1=O", "note": "(stereo not drawn)", "Potency": "inconclusive: 23.1 µM [activator, single point]"}, {"smiles": "CN(C)c1nc(N)c2ncc(=S)[nH]c2n1", "Potency": "inconclusive: 20.6 µM [activator, single point]"}, {"smiles": "COc1ccc(-n2nc3c(N4CCC(C(=O)NCC(C)c5ccccc5)CC4)nnc(C)c3c2C)cc1", "note": "(stereo not drawn)", "Potency": "inconclusive: 29.1 µM [activator, single point]"}, {"smiles": "N#Cc1ccc(CSc2nnc(-c3c[nH]c4ccccc34)n2-c2ccccc2)cc1", "Potency": "inconclusive: 16.4 µM [activator, partial curve]"}, {"smiles": "Cc1cccc(C(=O)OCC(=O)NCCNC(=O)COC(=O)c2cccc(C)c2C)c1C", "re-replication activation": "inactive: -5.82%"}, {"smiles": "Cc1ccc(NC(=O)CSCC(=O)N(C)CC(=O)Nc2cccc3ccccc23)cc1", "re-replication activation": "inactive: -23%"}, {"smiles": "COc1ccc(CNC(=O)C[C@H]2C[C@H](C(=O)N(C(C)C)C(C)C)[C@@]3(C)c4[nH]c5ccc(Cl)cc5c4CCN3C2=O)cc1OC", "Potency": "inconclusive: 2.06 µM [activator, full curve, poor fit]"}, {"smiles": "Cc1cccc(C)c1NC(=O)c1ccc(N2CCCC2=O)cc1", "Potency": "inconclusive: 0.0046 µM [activator, full curve, poor fit]"}, {"smiles": "CCOc1ccc(/C=C2\\SC(=S)N(CCC(=O)O)C2=O)cc1", "re-replication activation": "inactive: -15.2%"}, {"smiles": "Cc1ccc(-c2noc(CN3CCN(C(c4ccccc4)c4ccccc4)CC3)n2)cc1", "Potency": "inconclusive: 23.1 µM [activator, single point]"}, {"smiles": "Cc1ccccc1-c1nnn(CC(=O)N(C)CC(=O)Nc2ccccc2C(F)(F)F)n1", "re-replication activation": "inactive: -6.64%"}, {"smiles": "O=c1cc(-c2cccc(F)c2)oc2ccccc12", "Potency": "inconclusive: 32.6 µM [activator, partial curve, poor fit]"}, {"smiles": "O=C(COC(=O)c1ccccc1Cl)NC1CCCCCC1", "re-replication activation": "inactive: 1.47%"}, {"smiles": "CCCn1c2ccccc2c2cc(C(=O)O)ccc21", "re-replication activation": "inactive: 8.74%"}, {"smiles": "COC(=O)c1ccccc1NC(=O)CCn1c(=O)oc2ccccc21", "Potency": "inconclusive: 29.1 µM [activator, partial curve, poor fit]"}, {"smiles": "CC1(C)Cc2c(c(N3CCOCC3)nc3sc(C(=O)Nc4ccccc4)c(N)c23)CO1", "re-replication activation": "inactive: 1.16%"}, {"smiles": "COc1ccc(SCCN2CC[C@@H](C(C)(C)C)CCC2=O)cc1", "re-replication activation": "inactive: -4.04%"}, {"smiles": "CSCCCNC(=O)c1ccc(OC2CCN(CCc3ccccc3)CC2)cc1", "Potency": "inconclusive: 29.1 µM [activator, single point]"}, {"smiles": "COc1ccc(NC(=O)CSC2=C(C#N)C(c3ccco3)C3=C(CCCC3=O)N2)c(OC)c1", "note": "(stereo not drawn)", "Potency": "inconclusive: 31.6 µM [activator, single point]"}, {"smiles": "CC1CCCC(C)N1C(=O)COC(=O)c1ccc([N+](=O)[O-])o1", "note": "(stereo not drawn)", "re-replication activation": "inactive: 21.5%"}, {"smiles": "COc1cc(NC(=O)[C@@H](NC(=O)N2CCn3c2nc2ccccc23)C(C)C)cc(OC)c1", "re-replication activation": "inactive: -32.7%"}, {"smiles": "CN=C1SC(CC(=O)Nc2ccccc2F)C(=O)N1/N=C/c1ccc(O)c(OC)c1", "note": "(stereo not drawn)", "re-replication activation": "inactive: -4.83%"}, {"smiles": "O=C1COc2ccc(C(=O)COC(=O)/C=C/c3cccc(F)c3)cc2N1", "re-replication activation": "inactive: 0.67%"}, {"smiles": "c1ccc2oc(-c3ccc(Nc4nc(N5CCOCC5)nc(N5CCOCC5)n4)cc3)nc2c1", "Potency": "inconclusive: 29.1 µM [activator, single point]"}, {"smiles": "Cc1cc(NC(=O)C2CCCCC2)n(-c2nc3ccccc3[nH]2)n1", "re-replication activation": "inactive: 1.89%"}, {"smiles": "CCCN1C(=O)C(O)(CC(=O)c2cccc(OC)c2)c2ccccc21", "note": "(stereo not drawn)", "Potency": "inconclusive: 20.6 µM [activator, single point]"}, {"smiles": "COc1ccc(C(=O)NNC(=S)NC(=O)c2ccco2)cc1", "re-replication activation": "inactive: 5.05%"}, {"smiles": "COc1cc(NC(=O)c2nccn2C)cc(C(=O)Nc2cccc(C(F)(F)F)c2)c1", "Potency": "inconclusive: 6.51 µM [activator, single point]"}, {"smiles": "O=C1C=CC(=O)N1c1ccc(N2CCCCC2)cc1", "Potency": "inconclusive: 14.6 µM [activator, partial curve, poor fit]"}, {"smiles": "O=C(COC(=O)CCc1nc2ccccc2c(=O)[nH]1)NC(=O)NC1CCCC1", "Potency": "inconclusive: 1.3 µM [activator, full curve, poor fit]"}, {"smiles": "COCCNc1nnc(Cc2ccc(Cl)cc2)c(=O)[nH]1", "re-replication activation": "inactive: 4.25%"}, {"smiles": "N=c1n(CCc2ccccc2)c2ccccc2n1Cc1ccccc1F", "Potency": "inconclusive: 8.2 µM [activator, partial curve, poor fit]"}, {"smiles": "CCN(CC)S(=O)(=O)c1ccc2c(c1)NC(=O)C1CCCN21", "note": "(stereo not drawn)", "Potency": "inconclusive: 3.66 µM [activator, partial curve, poor fit]"}, {"smiles": "O=C(COC(=O)Cc1ccc(S(=O)(=O)N2CCOCC2)s1)Nc1ccccc1Cl", "re-replication activation": "inactive: -6.87%"}, {"smiles": "Clc1ccc(CN2CCSCC2)cc1Cl", "Potency": "inconclusive: 4.61 µM [activator, full curve, poor fit]"}, {"smiles": "COc1cc(OC)cc(C(=O)Nc2cccc(N3CCCC3)c2)c1", "Potency": "inconclusive: 2.91 µM [activator, partial curve, poor fit]"}, {"smiles": "Cc1ccccc1Nc1nc(-c2sc(NC(=O)c3ccco3)nc2C)cs1", "re-replication activation": "inactive: -25.5%"}, {"smiles": "COc1cc(NC(=O)CCn2c(=S)oc3ccccc32)cc(OC)c1OC", "re-replication activation": "inactive: -9.21%"}, {"smiles": "CN(C(=S)Nc1ccc(F)cc1)C(c1ccccc1)c1ccccc1", "re-replication activation": "inactive: 17.6%"}, {"smiles": "O=C(Nc1cccc(-c2cccc(Cl)c2)c1)C1CCN(Cc2ccccn2)CC1", "Potency": "inconclusive: 18.4 µM [activator, single point]"}, {"smiles": "O=C(CSc1cn(CCNC(=O)c2ccccc2)c2ccccc12)NCC1CCCO1", "note": "(stereo not drawn)", "Potency": "inconclusive: 0.58 µM [activator, full curve]"}]}]}
